Test results from patent US20220016174A1, “FOETAL MESENCHYMAL STEM CELL COMPOSITION OF ALLOGENIC ORGIN, TREATMENT METHOD AND USE THEREOF IN MASTITIS IN MILK-PRODUCING ANIMALS, INCLUDING CATTLE” (UNIVERSIDAD DE CHILE, priority 2018, published 2022).
At least one structure is not confirmed: it was looked up by name or label, or the drawing left a doubt.

Legend:
[1] = tested on: Holstein Friesian cows challenged with S. aureus; experiment: Clinical and productive variables in cows challenged with S. aureus (induced mastitis); type: in vivo; conditions: n=5 each group, mean ± SD
S. aureus = experiment: Bacteriological analysis (CFU) in milk of cows challenged with S. aureus; type: in vivo, Staphylococcus aureus; conditions: day 7 post-challenge
Description: 1 mL of PBS was inoculated into the right quarters as a control. The NEG group (without therapy) was treated on days 4 and 10 with a 5 mL Ringer Lactate solution via the teat canal in the two infected quarters. The ATB group (antibiotic therapy) was treated with a commercial suspension of 50 mg of pirlimycin on experimental days 4 and 5 via the teat canal in the two infected quarters. The MSC group (MSC therapy) was administered with a 2.5×10^7 suspension of MSC in 3 ml of Lactated Ringer via the teat canal in the two infected quarters. From the day of the challenge and daily during 15 days, the cows were clinically evaluated and milk samples were collected daily to determine SCC and CFU (FIG. 2B). The clinical evaluation and the collection of milk samples were carried out as detailed below.
Milk samples prior to milking were collected aseptically from all cows following the protocols of the International Dairy Federation (1985) on three consecutive days prior to the experimental challenge (FIG. 2B). Briefly, before milking, the quarters and teats were cleaned using a brush or washed with water in case of excessive presence of mud or manure. […]
From the day of the challenge and daily for 15 days, milk samples were collected for determination of CFU. The CFU values were subsequently expressed as a linear score (LS-CFU) by means of logarithmic transformation (LS=LOGN). […]

CC[C@@H]1CCN[C@H](C(=O)N[C@@H]([C@H]2O[C@H](SC)[C@H](O)[C@@H](O)[C@H]2O)[C@H](C)Cl)C1 [ATB, pirlimycin]
Heart rate (bpm) [1]: 53.3 ± 3,5 bpm
LS-CFU (linear score of CFU in milk) (S. aureus): −0, 7
